Results are given in words; binding and its absence hold for the method and conditions named. Binding seen in cells or lysates may run through a third protein. Some entries that bind do so weakly or less than the wild type. Where a sequence is shown, tags or fusion partners need not be part of it.
T1: EGFP-tagged Bacurd1/Kctd13 (UniProt Q8BGV7)
T1 sequence: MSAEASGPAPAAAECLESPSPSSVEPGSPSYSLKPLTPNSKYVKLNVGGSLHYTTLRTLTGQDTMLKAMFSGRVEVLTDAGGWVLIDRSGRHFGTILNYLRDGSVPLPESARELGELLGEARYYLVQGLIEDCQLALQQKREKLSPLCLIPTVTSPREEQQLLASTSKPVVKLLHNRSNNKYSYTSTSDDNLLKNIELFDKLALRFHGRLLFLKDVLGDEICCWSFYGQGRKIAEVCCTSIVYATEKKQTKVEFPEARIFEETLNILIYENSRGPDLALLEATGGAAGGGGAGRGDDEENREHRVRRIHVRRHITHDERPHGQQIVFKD

T2: EGFP-tagged Bacurd2/Tnfaip1 (UniProt O70479)
T2 sequence: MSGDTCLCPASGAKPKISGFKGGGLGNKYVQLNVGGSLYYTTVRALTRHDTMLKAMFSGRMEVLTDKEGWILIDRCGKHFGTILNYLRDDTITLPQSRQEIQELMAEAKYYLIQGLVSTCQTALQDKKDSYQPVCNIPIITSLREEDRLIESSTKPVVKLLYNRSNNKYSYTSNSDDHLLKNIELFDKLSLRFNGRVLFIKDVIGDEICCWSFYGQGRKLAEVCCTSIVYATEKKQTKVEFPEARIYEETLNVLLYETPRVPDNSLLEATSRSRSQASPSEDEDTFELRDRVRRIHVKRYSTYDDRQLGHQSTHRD


Legend:
[1] = target: T1, EGFP-tagged Bacurd1/Kctd13; assay: co-IP; lysates of HEK293T cells transiently transfected; immunoprecipitation with antibodies against EGFP, immunoblot for FLAG; reciprocal immunoprecipitation with FLAG antibodies, immunoblot for EGFP
[2] = target: T2, EGFP-tagged Bacurd2/Tnfaip1; assay: as above

binding [1] | binding [2] | Binder
binds | binds | FLAG-tagged Rnd3 (protein, UniProt P61588 1-244) MKERRASQKLSSKSIMDPNQNVKCKIVVVGDSQCGKTALLHVFAKDCFPENYVPTVFENYTASFEIDTQRIELSLWDTSGSPYYDNVRPLSYPDSDAVLICFDISRPETLDSVLKKWKGEIQEFCPNTKMLLVGCKSDLRTDVSTLVELSNHRQTPVSYDQGANMAKQIGAATYIECSALQSENSVRDIFHVATLACVNKTNKNVKRNKSQRATKRISHMPSRPELSAVATDLRKDKAKSCTVM
binds | binds | FLAG-tagged Rnd2 (protein, UniProt Q9QYM5 1-227) MEGQSGRCKIVVVGDAECGKTALLQVFAKDAYPGSYVPTVFENYTASFEIDKRRIELNMWDTSGSSYYDNVRPLAYPDSDAVLICFDISRPETLDSVLKKWQGETQEFCPNAKVVLVGCKLDMRTDLATLRELSKQRLIPVTHEQGTVLAKQVGAVSYVECSSRSSERSVRDVFHVATVASLGRGHRQLRRTDSRRGLQRSTQLSGRPDRGNEGEMHKDRAKSCNLM
